From article doi:10.1101/842476 come the findings set out here.

Protein sequences, listed by entry. Tags and fused reporters are not part of them. Residues count along the entry.
UniProt P84903, residues 23-685: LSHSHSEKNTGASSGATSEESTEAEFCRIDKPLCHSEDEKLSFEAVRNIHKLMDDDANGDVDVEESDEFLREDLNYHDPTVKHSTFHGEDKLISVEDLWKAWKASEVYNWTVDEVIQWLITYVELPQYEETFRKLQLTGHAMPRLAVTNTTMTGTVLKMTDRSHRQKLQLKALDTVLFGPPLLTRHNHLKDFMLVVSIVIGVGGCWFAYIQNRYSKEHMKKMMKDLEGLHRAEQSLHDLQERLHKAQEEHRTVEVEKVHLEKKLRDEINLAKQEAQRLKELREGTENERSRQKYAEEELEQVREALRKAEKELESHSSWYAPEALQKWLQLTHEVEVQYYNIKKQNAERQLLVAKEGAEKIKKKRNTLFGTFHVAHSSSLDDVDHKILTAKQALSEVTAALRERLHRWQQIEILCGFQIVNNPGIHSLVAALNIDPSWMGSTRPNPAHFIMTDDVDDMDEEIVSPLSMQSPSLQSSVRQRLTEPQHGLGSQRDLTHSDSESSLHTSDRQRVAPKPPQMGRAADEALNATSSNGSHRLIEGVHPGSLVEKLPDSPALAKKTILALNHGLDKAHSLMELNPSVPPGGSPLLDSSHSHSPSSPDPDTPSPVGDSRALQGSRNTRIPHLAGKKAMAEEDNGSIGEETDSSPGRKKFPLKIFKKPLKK
UniProt Q5M848: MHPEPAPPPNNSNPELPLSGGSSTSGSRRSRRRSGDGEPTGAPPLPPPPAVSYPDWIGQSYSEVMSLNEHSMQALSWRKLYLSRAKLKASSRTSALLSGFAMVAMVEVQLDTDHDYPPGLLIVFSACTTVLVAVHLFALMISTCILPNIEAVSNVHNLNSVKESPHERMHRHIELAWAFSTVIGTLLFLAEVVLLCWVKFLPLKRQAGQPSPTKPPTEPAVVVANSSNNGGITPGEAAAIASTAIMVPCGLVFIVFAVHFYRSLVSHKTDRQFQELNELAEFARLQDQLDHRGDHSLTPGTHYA

No constants are given. Whether binding was seen depends on the method and setting. In cells and extracts the contact can be indirect. Some entries that bind do so weakly or less than the wild type.

Assay [1] addresses STIM1 (rat (endogenous in DRG neurons)) (UniProt P84903). In words: proximity ligation.
Assay [2] addresses Orai1 (rat (endogenous in DRG neurons)) (UniProt Q5M848). As to the kind of experiment: proximity ligation.
Assay [3] has as its target STIM1 (rat (endogenous in DRG neurons)) (UniProt P84903). In words: co-IP.

B1: Junctophilin-4 (protein, UniProt Q69FB3 1-630)
chain: MHVPLGRKFDFDDGGCYVGGWEAGRAHGYGVCTGPGAQGEYSGCWAHGFESLGVFTGPGGHSYQGHWQQGKREGLGVERKSRWTYRGEWLGGLKGRSGVWESVSGLRYAGLWKDGFQDGYGTETYSDGGTYQGQWQAGKRHGYGVRQSVPYHQAALLRSPRRTSLDSGHSDPPTPPPPLPLPGDEGGSPASGSRGGFVLAGPGDADGASSRKRTPAAGGFFRRSLLLSGLRAGGRRSSLGSKRGSLRSEVSSEVGSTGPPGSEASGPPIPAPPALIEGSATEVYAGEWRADRRSGYGVSQRSNGLRYEGEWLGNRRHGYGRTTRPDGSREEGKYKRNRLVHGGRVRSLLPLALRRGKVKEKVDRAVEGARRAVSAARQRQEIAAARAADALLKAVAASSVAEKAVEAARMAKLIAQDLQPMLEAPGRRPRQDSGGSDTEPLDEDSPGVYENGLTPSEGSPELPSSPASSHQPWRAPPCRSPLPPGGNWGPFSSPKAWPEEWGGPGEQAEELAGYEAEDEAGMQGPGPRDGSPLLGGCSDSSGSLREEEGEDEESLPQLRAPGGSESEPVTTPVLRGLSSRGPDAGCLTEEFEEPAATERPAQPGAANPLVVGAVALLDLSLAFLFSQLLT
With B1, the binding entry is reported as “binds” in assay [1], “binds” in assay [2] and “binds weakly” in assay [3].
